Data published in paper PMC4460036.
No constants are given. Whether binding was seen depends on the method and setting. For part of these data: In cells and extracts the contact can be indirect. Some binding calls cover weakened binding; strength is not graded here.

The chains behind the UniProt entries cited, without tags or fusion partners. Where a name states a change or a piece, a line headed by the entry shows the natural chain unless it says otherwise. Residues count along the entry.
UniProt Q9HCN6, residues 21-339: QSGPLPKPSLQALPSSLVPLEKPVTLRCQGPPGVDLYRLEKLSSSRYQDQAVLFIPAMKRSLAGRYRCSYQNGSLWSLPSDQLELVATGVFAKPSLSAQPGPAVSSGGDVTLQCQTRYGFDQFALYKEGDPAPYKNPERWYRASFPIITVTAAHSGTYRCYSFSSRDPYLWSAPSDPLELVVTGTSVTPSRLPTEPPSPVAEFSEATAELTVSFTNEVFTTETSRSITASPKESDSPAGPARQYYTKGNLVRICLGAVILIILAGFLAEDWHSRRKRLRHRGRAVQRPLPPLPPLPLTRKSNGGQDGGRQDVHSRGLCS
UniProt P02453: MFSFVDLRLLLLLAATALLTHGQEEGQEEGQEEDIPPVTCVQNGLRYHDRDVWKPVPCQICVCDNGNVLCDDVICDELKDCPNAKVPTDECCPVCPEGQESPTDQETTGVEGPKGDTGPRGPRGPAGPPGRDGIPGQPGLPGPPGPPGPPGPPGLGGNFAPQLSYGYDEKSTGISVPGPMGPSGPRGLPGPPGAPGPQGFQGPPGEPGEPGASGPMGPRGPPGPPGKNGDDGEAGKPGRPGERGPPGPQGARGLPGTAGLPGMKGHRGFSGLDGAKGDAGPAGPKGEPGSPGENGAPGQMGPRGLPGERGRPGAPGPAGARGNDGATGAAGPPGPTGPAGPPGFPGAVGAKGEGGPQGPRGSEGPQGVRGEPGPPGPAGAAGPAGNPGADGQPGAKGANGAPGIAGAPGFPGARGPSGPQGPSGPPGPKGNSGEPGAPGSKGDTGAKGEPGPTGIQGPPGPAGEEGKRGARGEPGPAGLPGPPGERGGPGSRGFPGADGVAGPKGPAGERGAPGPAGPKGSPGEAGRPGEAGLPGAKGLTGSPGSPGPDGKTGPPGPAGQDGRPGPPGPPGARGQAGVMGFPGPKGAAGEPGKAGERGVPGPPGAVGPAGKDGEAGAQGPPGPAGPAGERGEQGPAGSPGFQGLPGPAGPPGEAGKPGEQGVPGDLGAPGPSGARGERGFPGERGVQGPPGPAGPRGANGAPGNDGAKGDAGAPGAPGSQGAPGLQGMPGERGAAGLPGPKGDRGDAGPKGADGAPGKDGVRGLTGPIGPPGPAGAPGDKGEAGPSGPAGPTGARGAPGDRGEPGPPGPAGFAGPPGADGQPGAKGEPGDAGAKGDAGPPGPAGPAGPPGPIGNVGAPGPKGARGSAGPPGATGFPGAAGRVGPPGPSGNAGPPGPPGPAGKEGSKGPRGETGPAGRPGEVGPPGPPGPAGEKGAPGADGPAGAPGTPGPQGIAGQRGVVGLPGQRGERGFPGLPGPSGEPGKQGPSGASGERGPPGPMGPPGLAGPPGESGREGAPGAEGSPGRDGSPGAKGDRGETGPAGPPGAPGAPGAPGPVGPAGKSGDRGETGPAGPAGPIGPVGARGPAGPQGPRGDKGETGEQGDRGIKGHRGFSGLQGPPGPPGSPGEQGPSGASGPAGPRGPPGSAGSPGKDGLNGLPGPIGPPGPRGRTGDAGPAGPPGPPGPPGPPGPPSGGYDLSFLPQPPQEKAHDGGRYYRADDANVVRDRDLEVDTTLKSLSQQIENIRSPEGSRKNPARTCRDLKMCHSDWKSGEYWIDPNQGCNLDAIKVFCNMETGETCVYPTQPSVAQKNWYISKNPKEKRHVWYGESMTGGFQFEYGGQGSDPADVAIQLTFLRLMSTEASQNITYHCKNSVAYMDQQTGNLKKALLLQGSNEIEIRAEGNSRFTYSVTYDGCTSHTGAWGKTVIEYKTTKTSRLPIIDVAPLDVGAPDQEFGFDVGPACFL

Assays:
[1] = molecular target: glycoprotein VI (GPVI) on human platelets (human (endogenous in platelets)) (UniProt Q9HCN6); assay: flow cytometry on cells; washed human platelets (treated with PBS, 22 μM losartan or 50 μg.mL^-1 Fab 9O12; pre-stimulated or not with TRAP 20 μM) incubated with 10 μg.mL^-1 FITC-collagen for 20 min at RT, fixed; only the binder purified
[2] = molecular target: glycoprotein VI (GPVI) on human platelets (human (endogenous in platelets)) (UniProt Q9HCN6); assay: flow cytometry on cells; washed human platelets, with PBS or 22 μM losartan, stimulated with collagen (10 μg.mL^-1), TRAP (20 μM) or ADP (10 μM) for 20 min; GPVI dimers or oligomers read by the binding of FITC-coupled antibody 9E18
[3] = molecular target: glycoprotein VI (GPVI) on human platelets (human (endogenous in platelets)) (UniProt Q9HCN6); assay: proximity ligation; Duolink with 9E18 coupled to PLUS and MINUS probes (5 μg.mL^-1 each); washed platelets, with or without 22 μM losartan, on collagen-coated Lab-Tek chambers 45 min at 37°C, fixed with 4% PFA; dots if probes <40 nm apart

Substance | binding [1] | binding [2] | binding [3]
FITC conjugated type I collagen (from UniProt P02453 162-1217; P02465 80-1117) | binds |  | 
glycoprotein VI (GPVI) on human platelets (from UniProt Q9HCN6 21-339) (receptor) |  | binds | binds
